In patent US20120077737A1, “HEPATITIS C INHIBITOR COMPOUNDS” (priority 2009, published 2012):
Some entries share one result that the patent states for a list of compounds.

Assays:
Conditions in all cases: statement in words
[1] = tested on: HCV genotype 1a subgenomic replicon with NS3 resistance mutation D168V; assay: HCV replicon RNA replication assay, D168V 1a; assay type: cell-based, HCV genotype 1a (strain H77), Huh-7 cells
[2] = tested on: HCV genotype 1a subgenomic replicon with NS3 resistance mutation R155K; assay: HCV replicon RNA replication assay, R155K 1a; assay type: cell-based, HCV genotype 1a (strain H77), Huh-7 cells
[3] = tested on: HCV genotype 1b subgenomic replicon with NS3 resistance mutation D168V; assay: HCV replicon RNA replication assay, D168V 1b; assay type: cell-based, HCV genotype 1b (Con-1), Huh-7 cells

COc1ccc2c(O[C@@H]3C[C@H]4C(=O)N[C@]5(C(=O)NS(=O)(=O)C6(C)CC6)C[C@H]5/C=C\CCCCC[C@H](NC(=O)c5ccn(CC(F)F)n5)C(=O)N4C3)cc(OC(C)C)nc2c1C [Compound 1001, (2R,6S,12Z,13aS,14aR,16aS)-6-({[1-(2,2-difluoroethyl)-1H-pyrazol-3-yl]carbonyl}amino)-2-{[7-methoxy-8-methyl-2-(propan-2-yloxy)quinolin-4-yl]oxy}-N-[(1-methylcyclopropyl)sulfonyl]-5,16-dioxo-1,2,3,6,7,8,9,10,11,13a,14,15,16,16a-tetradecahydrocyclopropa[e]pyrrolo[1,2-a][1,4]diazacyclopentadecine-14a(5H)-carboxamide]
unexpectedly good cell-based potency: cell-based potency against genotype 1a D168V resistance mutation [1] | cell-based potency against genotype 1a R155K resistance mutation [2] | cell-based potency against genotype 1b D168V resistance mutation [3]

COCCn1ccc(C(=O)N[C@H]2CCCCC/C=C\[C@@H]3C[C@@]3(C(=O)NS(=O)(=O)C3(C)CC3)NC(=O)[C@@H]3C[C@@H](Oc4cc(OC(C)C)nc5c(C)c(OC)ccc45)CN3C2=O)n1 [Compound 1002, (2R,6S,12Z,13aS,14aR,16aS)-6-({[1-(2-methoxyethyl)-1H-pyrazol-3-yl]carbonyl}amino)-2-{[7-methoxy-8-methyl-2-(propan-2-yloxy)quinolin-4-yl]oxy}-N-[(1-methylcyclopropyl)sulfonyl]-5,16-dioxo-1,2,3,6,7,8,9,10,11,13a,14,15,16,16a-tetradecahydrocyclopropa[e]pyrrolo[1,2-a][1,4]diazacyclopentadecine-14a(5H)-carboxamide]
unexpectedly good cell-based potency: cell-based potency against genotype 1a D168V resistance mutation [1] | cell-based potency against genotype 1a R155K resistance mutation [2] | cell-based potency against genotype 1b D168V resistance mutation [3]

Cc1c(Cl)ccc2c(O[C@@H]3C[C@H]4C(=O)N[C@]5(C(=O)NS(=O)(=O)C6(C)CC6)C[C@H]5/C=C\CCCCC[C@H](NC(=O)c5ccn(C)n5)C(=O)N4C3)cc(OC(C)C)nc12 [Compound 1003, (2R,6S,12Z,13aS,14aR,16aS)-2-{[7-chloro-8-methyl-2-(propan-2-yloxy)quinolin-4-yl]oxy}-N-[(1-methylcyclopropyl)sulfonyl]-6-{[(1-methyl-1H-pyrazol-3-yl)carbonyl]amino}-5,16-dioxo-1,2,3,6,7,8,9,10,11,13a,14,15,16,16a-tetradecahydrocyclopropa[e]pyrrolo[1,2-a][1,4]diazacyclopentadecine-14a(5H)-carboxamide]
unexpectedly good cell-based potency: cell-based potency against genotype 1a D168V resistance mutation [1] | cell-based potency against genotype 1a R155K resistance mutation [2] | cell-based potency against genotype 1b D168V resistance mutation [3]

COc1ccc2c(O[C@@H]3C[C@H]4C(=O)N[C@]5(C(=O)NS(=O)(=O)C6(C)CC6)C[C@H]5/C=C\CCCCC[C@H](NC(=O)c5ccn(CCF)n5)C(=O)N4C3)cc(OC(C)C)nc2c1C [Compound 1004, (2R,6S,12Z,13aS,14aR,16aS)-6-({[1-(2-fluoroethyl)-1H-pyrazol-3-yl]carbonyl}amino)-2-{[7-methoxy-8-methyl-2-(propan-2-yloxy)quinolin-4-yl]oxy}-N-[(1-methylcyclopropyl)sulfonyl]-5,16-dioxo-1,2,3,6,7,8,9,10,11,13a,14,15,16,16a-tetradecahydrocyclopropa[e]pyrrolo[1,2-a][1,4]diazacyclopentadecine-14a(5H)-carboxamide]
unexpectedly good cell-based potency: cell-based potency against genotype 1a D168V resistance mutation [1] | cell-based potency against genotype 1a R155K resistance mutation [2] | cell-based potency against genotype 1b D168V resistance mutation [3]

COc1ccc2c(O[C@@H]3C[C@H]4C(=O)N[C@]5(C(=O)NS(=O)(=O)C6(C)CC6)C[C@H]5/C=C\CCCCC[C@H](NC(=O)c5ccn(CC(F)(F)F)n5)C(=O)N4C3)cc(OC(C)C)nc2c1C [Compound 1005, (2R,6S,12Z,13aS,14aR,16aS)-2-{[7-methoxy-8-methyl-2-(propan-2-yloxy)quinolin-4-yl]oxy}-N-[(1-methylcyclopropyl)sulfonyl]-5,16-dioxo-6-({[1-(2,2,2-trifluoroethyl)-1H-pyrazol-3-yl]carbonyl}amino)-1,2,3,6,7,8,9,10,11,13a,14,15,16,16a-tetradecahydrocyclopropa[e]pyrrolo[1,2-a][1,4]diazacyclopentadecine-14a(5H)-carboxamide]
unexpectedly good cell-based potency: cell-based potency against genotype 1a D168V resistance mutation [1] | cell-based potency against genotype 1a R155K resistance mutation [2] | cell-based potency against genotype 1b D168V resistance mutation [3]

COc1ccc2c(O[C@@H]3C[C@H]4C(=O)N[C@]5(C(=O)NS(=O)(=O)C6(C)CC6)C[C@H]5/C=C\CCCCC[C@H](NC(=O)c5cnn(C)n5)C(=O)N4C3)cc(OC(C)C)nc2c1C [Compound 1006, (2R,6S,12Z,13aS,14aR,16aS)-2-{[7-methoxy-8-methyl-2-(propan-2-yloxy)quinolin-4-yl]oxy}-N-[(1-methylcyclopropyl)sulfonyl]-6-{[(2-methyl-2H-1,2,3-triazol-4-yl)carbonyl]amino}-5,16-dioxo-1,2,3,6,7,8,9,10,11,13a,14,15,16,16a-tetradecahydrocyclopropa[e]pyrrolo[1,2-a][1,4]diazacyclopentadecine-14a(5H)-carboxamide]
unexpectedly good cell-based potency: cell-based potency against genotype 1a D168V resistance mutation [1] | cell-based potency against genotype 1a R155K resistance mutation [2] | cell-based potency against genotype 1b D168V resistance mutation [3]

COc1ccc2c(O[C@@H]3C[C@H]4C(=O)N[C@]5(C(=O)NS(=O)(=O)C6(C)CC6)C[C@H]5/C=C\CCCCC[C@H](NC(=O)c5ccn(C)n5)C(=O)N4C3)cc(OC(C)C)nc2c1C [Compound 1007, (2R,6S,12Z,13aS,14aR,16aS)-2-{[7-methoxy-8-methyl-2-(propan-2-yloxy)quinolin-4-yl]oxy}-N-[(1-methylcyclopropyl)sulfonyl]-6-{[(1-methyl-1H-pyrazol-3-yl)carbonyl]amino}-5,16-dioxo-1,2,3,6,7,8,9,10,11,13a,14,15,16,16a-tetradecahydrocyclopropa[e]pyrrolo[1,2-a][1,4]diazacyclopentadecine-14a(5H)-carboxamide]
unexpectedly good cell-based potency: cell-based potency against genotype 1a D168V resistance mutation [1] | cell-based potency against genotype 1a R155K resistance mutation [2] | cell-based potency against genotype 1b D168V resistance mutation [3]

Cc1c(F)ccc2c(O[C@@H]3C[C@H]4C(=O)N[C@]5(C(=O)NS(=O)(=O)C6(C)CC6)C[C@H]5/C=C\CCCCC[C@H](NC(=O)c5ccn(C)n5)C(=O)N4C3)cc(OC(C)C)nc12 [Compound 1008, (2R,6S,12Z,13aS,14aR,16aS)-2-{[7-fluoro-8-methyl-2-(propan-2-yloxy)quinolin-4-yl]oxy}-N-[(1-methylcyclopropyl)sulfonyl]-6-{[(1-methyl-1H-pyrazol-3-yl)carbonyl]amino}-5,16-dioxo-1,2,3,6,7,8,9,10,11,13a,14,15,16,16a-tetradecahydrocyclopropa[e]pyrrolo[1,2-a][1,4]diazacyclopentadecine-14a(5H)-carboxamide]
unexpectedly good cell-based potency: cell-based potency against genotype 1a D168V resistance mutation [1] | cell-based potency against genotype 1a R155K resistance mutation [2] | cell-based potency against genotype 1b D168V resistance mutation [3]

COCc1ccc(C(=O)N[C@H]2CCCCC/C=C\[C@@H]3C[C@@]3(C(=O)NS(=O)(=O)C3CC3)NC(=O)[C@@H]3C[C@@H](Oc4cc(OC(C)C)nc5c(C)c(OC)ccc45)CN3C2=O)s1 [Compound 1009, (2R,6S,12Z,13aS,14aR,16aS)-N-(cyclopropylsulfonyl)-2-{[7-methoxy-8-methyl-2-(propan-2-yloxy)quinolin-4-yl]oxy}-6-({[5-(methoxymethyl)thiophen-2-yl]carbonyl}amino)-5,16-dioxo-1,2,3,6,7,8,9,10,11,13a,14,15,16,16a-tetradecahydrocyclopropa[e]pyrrolo[1,2-a][1,4]diazacyclopentadecine-14a(5H)-carboxamide]
unexpectedly good cell-based potency: cell-based potency against genotype 1a D168V resistance mutation [1] | cell-based potency against genotype 1a R155K resistance mutation [2] | cell-based potency against genotype 1b D168V resistance mutation [3]

COc1ccc2c(O[C@@H]3C[C@H]4C(=O)N[C@]5(C(=O)NS(=O)(=O)C6(C)CC6)C[C@H]5/C=C\CCCCC[C@H](NC(=O)c5cnn(CC(F)F)n5)C(=O)N4C3)cc(OC(C)C)nc2c1C [Compound 1010, (2R,6S,12Z,13aS,14aR,16aS)-6-({[2-(2,2-difluoroethyl)-2H-1,2,3-triazol-4-yl]carbonyl}amino)-2-{[7-methoxy-8-methyl-2-(propan-2-yloxy)quinolin-4-yl]oxy}-N-[(1-methylcyclopropyl)sulfonyl]-5,16-dioxo-1,2,3,6,7,8,9,10,11,13a,14,15,16,16a-tetradecahydrocyclopropa[e]pyrrolo[1,2-a][1,4]diazacyclopentadecine-14a(5H)-carboxamide]
unexpectedly good cell-based potency: cell-based potency against genotype 1a D168V resistance mutation [1] | cell-based potency against genotype 1a R155K resistance mutation [2] | cell-based potency against genotype 1b D168V resistance mutation [3]
